Measured values from PMC12040169 (PLOS Biology, 2025).
Some of the results follow.

test system: T1, CTL2-GFP (C. trachomatis L2/434/Bu, GFP-expressing); parameters: species or system HeLa; Intracellular C. trachomatis growth in HeLa cells, bulk GFP fluorescence relative to DMSO; settings: bulk GFP, single well; 28.5 h, 10 µM; inhibitor
T1 construct: L2/434/Bu, GFP-expressing

SMILES	% of control remaining
Cc1ccc2nc(SCC(=O)Nc3ccccc3Br)c(C#N)cc2c1 [CBK068169]	110.124%
COc1ccc(OC(=O)c2cc(S(=O)(=O)N3CCCCCC3)ccc2Cl)cc1 [CBK264562]	122.407%
Cc1ccc2nc(-c3ccc4c(c3)CC(C)N4S(C)(=O)=O)cn2c1 (centres unmarked) [CBK285184]	119.802%
O=C(O)CCc1nc2[nH]c(C(F)F)cc(=O)n2n1 [CBK286880]	99.3449%
COc1ccc(CN2C(=O)CC3(C2=O)C(=O)N(C)c2ccccc23)cc1OC (centres unmarked) [CBK075450]	129.726%
c1ccc(-c2nnc(-c3ccco3)c(-c3ccco3)n2)cc1 [CBK286196]	138.13%
O=C1CSC2(C(=O)Nc3ccccc32)N1c1ccc([N+](=O)[O-])cc1 (centres unmarked) [CBK026035]	91.8097%
Cc1[nH]nc2nc(-c3cc(Br)ccc3O)cc(C(=O)O)c12 [CBK286834]	134.956%
Cc1ccc(-c2ncc(OCCN(C(C)C)C(C)C)nc2N)cc1C [CBK145150]	124.471%
Cc1nc(C2CN(c3ccnc4c(F)cccc34)CCO2)no1 (centres unmarked) [CBK304464]	77.0829%
COc1ccc(-c2cc(C(=O)N3CCC(S(C)(=O)=O)C3)cnc2-c2ccccc2)cn1 (centres unmarked) [CBK036706]	174.104%
O=S(=O)(Nc1nnn[nH]1)c1cccc(C(F)(F)F)c1 [CBK062377]	143.841%
COc1ccc(Cc2nc(CCNC(C)=O)n(CC(F)(F)F)n2)cc1 [CBK307287]	143.987%
Nc1ncc(-c2ccc(OC(F)(F)F)cc2)nc1-c1ccc(O)cc1 [CBK122506]	132.951%
Cc1cccc(C(C)(C)C)c1NC(=O)N1CCC(Cc2ccccc2)CC1 [CBK043962]	85.6972%
CC(Oc1ccccc1)C(=O)NCCCc1ccccc1 (centres unmarked) [CBK264060]	121.403%
O=[N+]([O-])c1ccc(CSc2nnc(-c3cnccn3)n2Cc2ccco2)cc1 [CBK267585]	106.934%
Cc1ccc(F)c(NS(=O)(=O)Cc2ccccc2)c1 [CBK038438]	99.9788%
CN1C(=O)CC2(C1=O)C(=O)N(CCN1CCCC1=O)c1ccc(F)cc12 (centres unmarked) [CBK075463]	147.614%
CN(Cc1ncc[nH]1)C(=O)c1cn(Cc2cccc(C(F)(F)F)c2)nn1 [CBK306768]	120.934%
COc1ccc(CC(=O)N(C)CCN2CCCCC2)cc1C [CBK282728]	152.015%
CC1(C)Cc2nc(N3CCOCC3)ncc2C(NC(=O)C2CCCC2)C1 (centres unmarked) [CBK307687]	97.6753%
O=C(CSc1ncnc2scc(-c3ccc(Cl)cc3)c12)Nc1nsc(-c2ccccc2)n1 [CBK266473]	159.256%
Fc1cccc(-c2nnc(SCc3nc4ccccc4[nH]3)n2-c2ccccc2)c1 [CBK263256]	113.786%
COc1ccc(-c2cc[nH]n2)c(OC)c1OC [CBK022957C]	127.236%

SMILES	% of control remaining
Cc1cccc(-n2c(CCc3ccccc3)nnc2SCC(=O)c2ccccc2)c1 [CBK266369]	194.794%
CN1CCC(N(C)C(=O)NCCOc2ccccc2)C1 (centres unmarked) [CBK156018]	101.422%
CCc1ccc2c(c1)C(CCNC(=O)c1ncoc1C(F)(F)F)C(=O)N2 (centres unmarked) [CBK304725]	93.5557%
CN1C[C@@H](C(=O)N2CCCCCC2)[C@@]2(CCc3ccccc3C2=O)C1 [CBK284590]	109.263%
Cc1ccc(C(=O)C(OC(=O)c2cc(O)nc3ccccc23)c2ccccc2)cc1C (centres unmarked) [CBK265515]	100%
Cc1ccc(NC(=O)C2CC(=O)Nc3nc4ccccc4n32)cc1 (centres unmarked) [CBK288134]	95.1754%
Cn1c(-c2ccccc2O)n[nH]c1=S [CBK014577]	107.187%
Cc1ccc(C(=O)NCc2cccc(COCc3ccco3)c2)cc1F [CBK297750]	142.858%
Cc1cc(C)n(CC(O)CN2C(=O)NC(C)(C)C2=O)n1 (centres unmarked) [CBK264811]	110.313%
Nc1nc(=O)n([C@@H]2O[C@H](CO)[C@H](O)C2O)cc1CO (some centres unmarked) [CBK201160]	102.715%
COc1cc(S(=O)(=O)NC2CC(C)(C)NC(C)(C)C2)ccc1F [CBK266561]	115.535%
Cc1cc(COC(=O)N2CCC(CO)CC2)cc(C)n1 [CBK200152]	126.636%
Cc1nc(-c2ccc(NC(=O)Cc3sc(C)nc3C)cc2)cs1 [CBK281404]	103.077%
CN1CCN(CCCCn2nc3n(c2=O)-c2ccccc2OC3(C)C)CC1 [CBK023953C]	104.868%
O=C1CCC(CNS(=O)(=O)c2ccccc2Cl)N1 (centres unmarked) [CBK304850]	95.0352%
COc1ccc(Cl)cc1N1CCN(Cc2cc(OC)c(OC)c(OC)c2)CC1 [CBK126406]	103.402%
COc1ccc2c(C)c(C(=O)NC(C)Cc3ccccn3)oc2c1 (centres unmarked) [CBK281424]	118.571%
Cc1c(C(=O)N2CCS(=O)(=O)CC2)nnn1-c1ccc2ncccc2c1 [CBK305529]	113.972%
O=C(CN1CCN(c2ncccn2)CC1)N1N=CCC1c1ccccc1 (centres unmarked) [CBK270184]	158.709%
COc1ccc(OC(=O)N2CCC3(CC2)CC(=O)N(Cc2ccc(S(C)(=O)=O)cc2)C3=O)cc1 [CBK155952]	90.7349%
CCn1c(=O)n(CC(=O)NCCc2ccccc2)c2cccnc21 [CBK283812]	145.179%
CC(C)(C)c1ccc2c(c1)C(CCCCN1CCCC1)(c1ccccc1)C(=O)O2 (centres unmarked) [CBK017654C]	100%
O=C(Nc1cccc(C(=O)O)c1)/C(=C\c1ccccc1)NC(=O)c1ccccc1Cl [CBK263710]	135.059%
COc1ccc(-c2nc(COC(=O)c3cccnc3N)cs2)cc1OC [CBK296741]	99.1493%
Cc1cccc(NC2(C(F)(F)F)NC(c3ccccc3)=NC2=O)n1 (centres unmarked) [CBK267476]	141.784%

Taken from the listing (14 entries):
SMILES	% of control remaining
Cc1ccc(C(=O)C(OC(=O)c2cc(O)nc3ccccc23)c2ccccc2)cc1C (centres unmarked) [CBK265515]	100%
Cc1ccc(NC(=O)C2CC(=O)Nc3nc4ccccc4n32)cc1 (centres unmarked) [CBK288134]	95.1754%
Cn1c(-c2ccccc2O)n[nH]c1=S [CBK014577]	107.187%
Cc1ccc(C(=O)NCc2cccc(COCc3ccco3)c2)cc1F [CBK297750]	142.858%
Cc1cc(C)n(CC(O)CN2C(=O)NC(C)(C)C2=O)n1 (centres unmarked) [CBK264811]	110.313%
Nc1nc(=O)n([C@@H]2O[C@H](CO)[C@H](O)C2O)cc1CO (some centres unmarked) [CBK201160]	102.715%
COc1cc(S(=O)(=O)NC2CC(C)(C)NC(C)(C)C2)ccc1F [CBK266561]	115.535%
Cc1cc(COC(=O)N2CCC(CO)CC2)cc(C)n1 [CBK200152]	126.636%
Cc1nc(-c2ccc(NC(=O)Cc3sc(C)nc3C)cc2)cs1 [CBK281404]	103.077%
CN1CCN(CCCCn2nc3n(c2=O)-c2ccccc2OC3(C)C)CC1 [CBK023953C]	104.868%
O=C1CCC(CNS(=O)(=O)c2ccccc2Cl)N1 (centres unmarked) [CBK304850]	95.0352%
COc1ccc(Cl)cc1N1CCN(Cc2cc(OC)c(OC)c(OC)c2)CC1 [CBK126406]	103.402%
COc1ccc2c(C)c(C(=O)NC(C)Cc3ccccn3)oc2c1 (centres unmarked) [CBK281424]	118.571%
Cc1c(C(=O)N2CCS(=O)(=O)CC2)nnn1-c1ccc2ncccc2c1 [CBK305529]	113.972%
